From PubChem BioAssay AID2685 (National Center for Advancing Translational Sciences (NCATS), 2010)
Some of the results follow. Shown are side measurements of this screen, not its main read-out; they come without a call. Most of these compounds were active or inconclusive in the main read-out, so they are no random draw. Words in brackets tell the shape of the fitted curve; partial curves, single points and poor fits give uncertain potencies.

Assay: qHTS Assay for Lipid Storage Modulators in Drosophila S3 Cells;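 for cell number change: cells counted by Cell Tracker Red CMTPX staining in the red channel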
Details: BODIPY lipid droplet fluorescence, 18-24 h; for cell number change: measured here: cell count max response, cells fed with added oleic acid
Method in brief: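 Drosophila S3 cells loaded with oleic acid (400 uM, as added) and compounds at several concentrations; lipid droplets imaged by 488-nm laser-scanning cytometry, 500–530 nm intensity and object ratio to cell channel. Percent activity normalized to 20 uM Triacsin C.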

[1] = measured here: lipid fluorescence (Fed channel) AC50, cells fed with added oleic acid
[2] = measured here: cell number channel AC50, cells fed with added oleic acid

| Compound | AC50 [1] | cell number change | AC50 [2] |
| --- | --- | --- | --- |
| CN1CCN(c2ccc(NC(=O)c3ccc(Cl)cc3)cn2)CC1 | 0.00461 µM [falling, full curve, poor fit] | – | – |
| O=C(c1nc2ccccn2c1CN1CCCC(O)C1)N1CCN(C2CCCCC2)CC1 (stereo not drawn) | – | 33.2% | 16.4 µM [rising, partial curve, poor fit] |
| COc1ccccc1NC(=S)N(Cc1ccco1)Cc1cc2cc(C)c(C)cc2[nH]c1=O | 1.84 µM [rising, partial curve] | -15.6% | – |
| COc1cc(/C=N/N=C(/C(=O)c2ccccc2)c2ccccc2)cc(OC)c1O | 5.8 µM [rising, single point] | -38.2% | 32.6 µM [falling, single point] |
| O=c1cc(CO)oc(C(Nc2ccccn2)c2cccc(F)c2)c1O (stereo not drawn) | 10.3 µM [falling, partial curve] | -31.9% | 1.3 µM [falling, full curve] |
| COc1cc(NC(=O)CN(C)Cc2cccc(F)c2)c(C)cc1[N+](=O)[O-] | – | 29.8% | – |
| Nc1cc(Cl)ccc1C(=O)OCC(=O)NC(=O)NCc1ccccc1 | 20.6 µM [falling, single point] | 8.14% | – |
| CCn1c(SCC(=O)NCc2ccccc2)nnc1-c1ccccc1O | – | -2.31% | – |
| CC1=NN(c2ccccc2)C(=O)/C1=C/c1ccc[nH]1 | 29.1 µM [falling, single point] | -76.9% | 29.1 µM [falling, single point] |
| O=C1c2ccccc2C(=O)N1CCCSc1nc2ccccc2o1 | 13 µM [falling, single point] | -4.74% | – |
| CC(=O)Nc1ccc(Nc2c3c4c(cccc4n(C)c2=O)C(=O)c2ccccc2-3)cc1 | 5.17 µM [falling, single point] | 20.1% | – |
| NC(=O)c1sc2cc(C(F)(F)F)cnc2c1-c1cccs1 | 8.2 µM [rising, partial curve] | 27.3% | – |
| CCc1nc2oc3cc(OC)ccc3c(=O)c2c(=O)n1-c1ccccc1 | 6.51 µM [rising, partial curve] | 18.4% | – |
| O=C(c1ccco1)N1CCN(C(=O)c2cc3ccccc3oc2=O)CC1 | 0.461 µM [rising, single point] | -0.578% | – |
| CC(C)CN(C(=O)COC(=O)c1ccc2ccccc2n1)C1CCS(=O)(=O)C1 (stereo not drawn) | 29.1 µM [rising, single point] | 10.3% | – |
| CCc1ccc(S(=O)(=O)N/N=C\c2ccc3c(c2)OCO3)cc1 | 0.146 µM [rising, full curve, poor fit] | -6.16% | – |
| CCC(c1nnnn1CCc1ccccc1)N1CCN(c2ccc(OC)cc2)CC1 (stereo not drawn) | – | 5.14% | – |
| CCSc1ccc([C@@H]2[C@@H]3C(=O)N(CC)C(=O)[C@@H]3[C@]3(C(=O)OC)CCCCN23)cc1 | 6.51 µM [rising, partial curve, poor fit] | 15.3% | – |
| CCCCN(C(=O)c1c(C)noc1C)c1c(N)n(CCC)c(=O)[nH]c1=O | 0.184 µM [falling, full curve, poor fit] | -1.68% | – |

| Compound | AC50 [1] | cell number change | AC50 [2] |
| --- | --- | --- | --- |
| CCc1nnc(NC(=O)CCC(=O)NCC2CCCO2)s1 (stereo not drawn) | 29.1 µM [falling, single point] | 7.76% | – |
| CC1Oc2ccccc2N(Cc2cccnc2)C1=O (stereo not drawn) | 0.116 µM [falling, single point] | 3.58% | – |
| CCc1nnc(NC(=O)CSc2nnc(-c3cccnc3)n2CC)s1 | – | 44.2% | 0.461 µM [rising, partial curve, poor fit] |
| CCc1ccccc1N1CC23C=CC(O2)C(C(=O)OCC(C)C)C3C1=O (stereo not drawn) | 0.58 µM [rising, full curve] | 18.1% | – |
| Cc1ccc(C(=O)NCC(=O)NCC(=O)OCC(=O)c2ccc(Br)cc2)cc1 | 8.2 µM [falling, partial curve, poor fit] | -4.4% | – |
| Cc1[nH]n2c(=O)c(C#N)c(-c3ccccc3)nc2c1-c1ccccc1 | 0.092 µM [falling, full curve, poor fit] | -3.75% | – |
| CC(C)(C)NC(=O)Cn1c(SCC(=O)N2CCCCCC2)nc2ccccc21 | 1.84 µM [rising, full curve, poor fit] | -1.25% | – |
| COc1ccc(Cl)cc1-c1nc(N)nc(NC2CCCCC2)n1 | 9.2 µM [rising, partial curve] | 36.5% | 5.17 µM [rising, full curve, poor fit] |
| C=C(C)COc1ccc(-c2n[nH]c(C)c2-c2ccc(OC)cc2)c(O)c1 | 20.6 µM [falling, single point] | -47.8% | 14.6 µM [falling, partial curve] |
| COCC(=O)Nc1nc2n(n1)C(c1ccccc1Cl)CC(c1ccc(OC)cc1)N2 (stereo not drawn) | 20.6 µM [rising, single point] | 24.4% | – |
| COCCNc1nnc(SCC(=O)c2ccc3c(c2)OCO3)s1 | – | -4.33% | – |
| O=C(O)c1ccc2c(c1)N(Cc1cccc(F)c1)C(=O)CS2 | 0.00411 µM [rising, full curve, poor fit] | 23.5% | – |
| Nc1nc(NCc2ccco2)nc(NCCO)c1[N+](=O)[O-] | 7.31 µM [rising, partial curve] | 24.7% | – |
| Cc1ccc(CCNC(=O)C2CCN(S(=O)(=O)c3ccc4c(c3)NC(=O)C(C)S4)CC2)cc1 (stereo not drawn) | 29.1 µM [rising, single point] | 7.63% | – |
| CC(C)c1cc(=O)n2c(nc3ccccc32)[nH]1 | 6.51 µM [falling, partial curve, poor fit] | -8.52% | – |
| O=C(CN1CCCCCCC1)Nc1cc(Cl)cc(Cl)c1 | – | 16.8% | – |
| CC(C)CC(NC(=O)/C(=C/c1ccco1)NC(=O)c1ccc(Br)o1)C(=O)O (stereo not drawn) | 36.6 µM [falling, partial curve, poor fit] | -29.3% | – |
| CN(C)S(=O)(=O)c1cccc(NC(=O)COC(=O)c2cccn2C)c1 | 6.51 µM [falling, single point] | – | – |
| Cc1cc(-c2nnnn2-c2ccc(F)cc2)no1 | 32.6 µM [rising, single point] | – | – |

Reprinted at random: 2 records from the list

| Compound | AC50 [1] | cell number change | AC50 [2] |
| --- | --- | --- | --- |
| Cc1ccc(C(=O)NCC(=O)NCC(=O)OCC(=O)c2ccc(Br)cc2)cc1 | 8.2 µM [falling, partial curve, poor fit] | -4.4% | – |
| Cc1ccc(CCNC(=O)C2CCN(S(=O)(=O)c3ccc4c(c3)NC(=O)C(C)S4)CC2)cc1 (stereo not drawn) | 29.1 µM [rising, single point] | 7.63% | – |
